Values from PubChem BioAssay AID1508588 (Peter MacCallum Cancer Centre, 2020)

Test: 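Knock-downs boosting vemurafenib effects on melanoma cell growth or lactate release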 (primary screen)
Cell system: human WM266.4 melanoma cells (BRAF V600 mutant)
Reagents: siRNA pool against human genes, 40 nM
Time to read-out: 96 h from transfection to read-out
Challenge: vemurafenib 300 nM (about IC25), added 48 h after transfection, for 48 h; comparison arm got DMSO vehicle only
Read-out: 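Ratios to non-targeting siRNA for cell gain, counted as DAPI nuclei after minus before drug and averaged over two replicates, and for absorbance-read medium lactate per cell; both binned into fold-change classes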
Reading the numbers: cell gain with vemurafenib: higher = more cell gain than with non-targeting siRNA; lactate per cell with vemurafenib: higher = more lactate made per cell
Hit rule: 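a knock-down counts as enhancing when its fold-change classes with vehicle and with vemurafenib, taken together, show a stronger drug effect on cell gain or lactate per cell; exact class pairs not stated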
Calls: active = enhances vemurafenib effect; inactive = no enhancement seen
The whole screen tested about 18,000 reagents; this is a random part of them. 790 of them (4.4%) count as active. 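Calls rest on a combination of fold-change classes in drug and vehicle arms, not all shown here.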 Unmarked entries are inactive.

{"target": "KLRC3", "cell gain with vemurafenib": 0.1, "lactate per cell with vemurafenib": 2.95}
{"target": "RSPO1", "cell gain with vemurafenib": 0.63, "lactate per cell with vemurafenib": 1.11}
{"target": "OTX2", "cell gain with vemurafenib": 0.79, "lactate per cell with vemurafenib": 0.86}
{"target": "MISO1", "cell gain with vemurafenib": 1.04, "lactate per cell with vemurafenib": 0.96}
{"target": "FAM199X", "cell gain with vemurafenib": 0.72, "lactate per cell with vemurafenib": 0.5}
{"target": "TMEM61", "cell gain with vemurafenib": 0.17, "lactate per cell with vemurafenib": 0.95}

Reformatted: entries from further up.
{"target":"FAM199X","cell gain with vemurafenib":0.72,"lactate per cell with vemurafenib":0.5}
{"target":"TMEM61","cell gain with vemurafenib":0.17,"lactate per cell with vemurafenib":0.95}

The list goes on:
{"target": "CSNK1A1", "cell gain with vemurafenib": 0.32, "lactate per cell with vemurafenib": 1.9}
{"target": "PODXL2", "cell gain with vemurafenib": 0.25, "lactate per cell with vemurafenib": 1.33}
{"target": "NLRP8", "cell gain with vemurafenib": 0.89, "lactate per cell with vemurafenib": 0.53}
{"target": "FAM8A1", "cell gain with vemurafenib": 0.55, "lactate per cell with vemurafenib": 1.03}
{"target": "IFT46", "cell gain with vemurafenib": "0.16 (active)", "lactate per cell with vemurafenib": 0.4}
{"target": "RAD23A", "cell gain with vemurafenib": 0.33, "lactate per cell with vemurafenib": 1.09}
{"target": "TFPI", "cell gain with vemurafenib": 0.8, "lactate per cell with vemurafenib": 0.74}
{"target": "USP38", "cell gain with vemurafenib": 1.17, "lactate per cell with vemurafenib": 0.56}
{"target": "VPS28", "cell gain with vemurafenib": 0.53, "lactate per cell with vemurafenib": 0.88}
{"target": "SF3B6", "cell gain with vemurafenib": -0.05, "lactate per cell with vemurafenib": 2.62}
